Assay results taken from US20170304388A1, “NEW INDICATION OF CARDIOVASCULAR DRUGS FOR PREPARATION OF CANCER INHIBITION PHARMACEUTICAL COMPOSITION” (LAUNX BIOMEDICAL CO., LTD., priority 2014, published 2017).

Tested on: cancer cell lines
Test: Growth inhibitory effects on the panel of cancer cell lines
Type: cell-based
Details: count of cancer cell lines inhibited; drug 10 μM, 72 hours

CC(C)OC(=O)C(C)(C)Oc1ccc(C(=O)c2ccc(Cl)cc2)cc1 [Fenofibrate (Tricor, Trilipix), Fenofibrate]
Numbers of inhibitory effect on cancer cell line: 0
